Results as given in PMC9243175.
Results are given in words; binding and its absence hold for the method and conditions named. A result given as binding can be weak or reduced; the word gives no strength. Where a sequence is shown, tags or fusion partners need not be part of it.

Molecular target: T1, GST-tagged HCN1c40 protein (C-terminal 40 amino acids of HCN1) (UniProt O88704)
T1 sequence: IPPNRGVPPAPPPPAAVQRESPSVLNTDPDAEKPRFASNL
Experiment: AlphaScreen or HTRF; 20 nM GST-HCN1c40 and 200 nM His-TRIP8b(241-602) incubated 3 h with varying concentrations of the compound NUCC-0200590; anti-GST acceptor beads 1.5 h, then nickel chelate donor beads 1.5 h; both purified

binding: binds
Substance: His-tagged TRIP8b (241–602) (domain or fragment)
